Measured values from article PMC3262128.
Results are given in words; binding and its absence hold for the method and conditions named. Binding seen in cells or lysates may run through a third protein. These calls come from enrichment with a bait or labelling near it, and not all partners need be listed.

Amino acid sequences for entries named in this document (tags omitted).
UniProt Q8IXW5: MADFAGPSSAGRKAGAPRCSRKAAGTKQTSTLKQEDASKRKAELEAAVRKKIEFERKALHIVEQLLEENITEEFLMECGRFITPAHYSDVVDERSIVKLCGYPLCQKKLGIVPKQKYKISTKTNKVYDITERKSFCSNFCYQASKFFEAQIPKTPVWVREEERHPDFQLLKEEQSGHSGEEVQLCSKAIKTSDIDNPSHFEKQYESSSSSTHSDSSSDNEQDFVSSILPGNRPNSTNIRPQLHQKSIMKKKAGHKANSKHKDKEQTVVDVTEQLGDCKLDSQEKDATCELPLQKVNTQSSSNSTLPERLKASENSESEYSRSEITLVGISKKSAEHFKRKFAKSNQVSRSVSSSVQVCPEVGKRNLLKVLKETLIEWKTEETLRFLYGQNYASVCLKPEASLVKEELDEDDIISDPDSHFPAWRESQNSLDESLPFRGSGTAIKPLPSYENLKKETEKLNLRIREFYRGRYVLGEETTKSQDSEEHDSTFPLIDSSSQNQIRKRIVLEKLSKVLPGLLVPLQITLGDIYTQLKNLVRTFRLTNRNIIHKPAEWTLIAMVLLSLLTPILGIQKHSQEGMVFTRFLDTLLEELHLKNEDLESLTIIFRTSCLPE
UniProt Q9UL03: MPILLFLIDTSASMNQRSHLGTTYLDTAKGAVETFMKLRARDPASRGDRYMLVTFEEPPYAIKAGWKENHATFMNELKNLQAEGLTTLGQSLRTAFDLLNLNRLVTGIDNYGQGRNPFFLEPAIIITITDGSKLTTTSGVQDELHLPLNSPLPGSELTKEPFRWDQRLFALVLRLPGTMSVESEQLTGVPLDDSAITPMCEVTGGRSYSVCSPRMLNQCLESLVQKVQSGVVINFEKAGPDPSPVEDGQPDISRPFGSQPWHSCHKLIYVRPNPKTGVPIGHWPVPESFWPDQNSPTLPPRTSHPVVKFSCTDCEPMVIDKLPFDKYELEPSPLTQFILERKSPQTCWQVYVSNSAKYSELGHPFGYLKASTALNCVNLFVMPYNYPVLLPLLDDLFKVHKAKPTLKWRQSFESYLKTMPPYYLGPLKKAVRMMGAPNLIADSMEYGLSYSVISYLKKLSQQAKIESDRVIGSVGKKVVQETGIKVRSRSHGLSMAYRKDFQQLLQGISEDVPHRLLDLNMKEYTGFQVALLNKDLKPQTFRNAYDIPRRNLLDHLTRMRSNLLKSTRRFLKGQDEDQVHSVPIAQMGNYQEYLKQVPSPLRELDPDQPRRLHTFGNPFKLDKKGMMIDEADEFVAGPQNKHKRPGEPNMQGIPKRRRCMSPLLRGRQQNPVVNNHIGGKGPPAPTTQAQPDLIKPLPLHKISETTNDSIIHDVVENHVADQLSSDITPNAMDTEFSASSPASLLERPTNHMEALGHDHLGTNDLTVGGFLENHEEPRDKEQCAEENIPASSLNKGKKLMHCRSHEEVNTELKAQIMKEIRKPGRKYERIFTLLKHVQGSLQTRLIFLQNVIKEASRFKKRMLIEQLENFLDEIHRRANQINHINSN

Molecular target: Flag-tagged RPAP2 (RNA Pol II-associated protein 2) (human) (UniProt Q8IXW5)
Experiment: affinity purification with mass spectrometry; small (SC) and large (LC) complexes of the F-RPAP2 Flag eluate, separated on a glycerol gradient, analysed by mass spectrometry

In the case of “Int6 subunit of the Integrator complex (from UniProt Q9UL03 1-887)”, the binding is reported as “binds”.
